Laboratory results reported in PubChem BioAssay AID2517 (National Center for Advancing Translational Sciences (NCATS), 2010).
In all, about 350,000 compounds went through this assay and about 1,200 (0.34%) were called active. The shares of active, inactive and inconclusive entries below differ from those in the screen. Calls come from the whole dose curve; as a rule, active = well fitted inhibition curve with a large enough effect; inconclusive = small, poorly fitted or top-dose-only effect; inactive = no such curve, though single readings can be large or run the other way. Potencies beside an inconclusive call are fits to weak or partial responses and may not hold up.

The chains behind the UniProt entries cited, without tags or fusion partners.
UniProt P27695, whole entry, looked up: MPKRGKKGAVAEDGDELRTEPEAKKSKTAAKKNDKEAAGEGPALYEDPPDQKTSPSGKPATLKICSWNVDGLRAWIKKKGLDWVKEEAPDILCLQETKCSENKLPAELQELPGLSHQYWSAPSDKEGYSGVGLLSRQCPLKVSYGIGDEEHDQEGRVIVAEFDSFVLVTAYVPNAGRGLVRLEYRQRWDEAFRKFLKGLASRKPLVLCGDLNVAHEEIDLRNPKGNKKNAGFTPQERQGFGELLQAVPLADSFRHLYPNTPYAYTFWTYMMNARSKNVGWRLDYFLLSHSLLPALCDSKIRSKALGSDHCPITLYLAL

Each compound was assayed against DNA repair nuclease/redox regulator APEX1 (Homo sapiens) (UniProt P27695) (assay: qHTS Assay for Inhibitors of the Human Apurinic/apyrimidinic Endonuclease 1 (APE1)). Conditions: recombinant APE1, TAMRA/BHQ-2 abasic DNA cleavage fluorescence; activity change, negative = inhibition: at 65.8 µM (top of the series).
Description: The apurinic/apyrimidinic endonuclease APE1 is the primary mammalian enzyme responsible for the removal of abasic (or AP) sites in DNA and functions centrally in the base excision DNA repair (BER) pathway. […] Thus, targeting APE1 could improve the efficacy of current treatment paradigms by promoting selective sensitization or protection of diseased and normal cells, respectively.
Inhibition of APE1 activity was screened by utilizing double-stranded short substrate containing tetrahydrofuran (THF) abasic site labeled with rhodamine-type fluorophore (TAMRA) at the 5'-end and with non-fluorescent Black Hole Quencher-2 (BHQ-2) at the opposing 3'-end. An increase in the fluorescence intensity due to incision of the abasic site by APE1 was used to measure the enzyme activity.
NIH Chemical Genomics Center [NCGC]
NIH Molecular Libraries Probe Centers Network [MLPCN]
Assay Provider: David M. Wilson, III, National Institute on Aging, NIH
Three uL of enzyme solution (0.75 nM APE1 final concentration) was dispensed to 1536-well Greiner black solid bottom plates. […] The plates were incubated for 15 min at room temperature, and then 1 uL of substrate solution (50 nM final concentration of TAMRA/BHQ-2) was added to start the reaction. The plates were immediately transferred into ViewLux High-throughput CCD imager (Perkin-Elmer) in order to measure the reaction progress in kinetic mode (three reads every 60 seconds) using 525 nm excitation and 598 nm emission fluorescence protocol. The fluorescence intensity difference between the third and the first time points was used to compute reaction progress. Results were normalized to buffer only columns and NSC13755 positive controls and negative control DMSO treated wells.
Note: nearly all actives have a fitted effect of over 55% in size.
Potency is the fitted concentration of half-maximal effect.
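Throughout, for activity change, negative = inhibition: plate controls were vehicle for no effect and reference inhibitor for full effect.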

Q: For COc1ccc(C2C3C=CCC(c4ccccc4)C3C(=O)N2Cc2ccccc2)cc1Cl (stereo not drawn), which Potency is on record?
A: inconclusive: 22.4 µM [inhibitor, single point]

Q: O=C(O)c1cc(Cl)c2c(c1)OCO2 was tested. Which Potency did it give?
A: inconclusive: 35.5 µM [inhibitor, partial curve]

Q: How did the Potency turn out when O=C1/C(=C\c2ccco2)CCC/C1=C\c1ccco1 was run?
A: inconclusive: 44.7 µM [inhibitor, single point]

Q: For CCN1CCN(C(=O)Cn2nc(-c3ccc(Cl)cc3)ccc2=O)CC1, which “activity change, negative = inhibition” value is on record?
A: inactive: -1.93%

Q: CC(C)(C)[C@H](NC(=O)c1ccc(N)c(Cl)c1)C(=O)N1CCC[C@H]1C(=O)N[C@H](C#N)Cc1nn[nH]n1 was tested. Which “activity change, negative = inhibition” value did it give?
A: inactive: -2.27%

Q: With O=C(NCC(=O)N(Cc1ccco1)C(C(=O)NC1CCCCC1)c1cccnc1)c1ccco1 (stereo not drawn) as the compound, how does the Potency read?
A: inconclusive: 39.8 µM [inhibitor, single point]

Q: How did the “activity change, negative = inhibition” value turn out when C[n+]1cccc(/C=N/NC(=O)CC23CC4CC(CC(C4)C2)C3)c1 was run?
A: inactive: 5.47%

Q: For CC(C)OP(=O)(OC(C)C)C(Nc1ccccc1)c1cccnc1 (stereo not drawn), which Potency is on record?
A: inconclusive: 0.0398 µM [inhibitor, full curve, poor fit]

Q: Which Potency does the source give for CC(C)c1ccc(/C=C/C(=O)NC2=NCCS2)cc1 here?
A: inconclusive: 44.7 µM [inhibitor, single point]

Q: Which Potency does the source give for O=C(CCl)Nc1nc(-c2ccco2)c(-c2ccco2)s1 here?
A: inconclusive: 15.8 µM [inhibitor, partial curve]

Q: With CCNc1nc(NCC)n2c(SCC(=O)Nc3ccccc3C(F)(F)F)nnc2n1 as the compound, how does the Potency read?
A: active: 21.2 µM

Q: COCCn1c(=O)c(-c2ccc(F)cc2)nc2cnc(N(C)C)nc21 was tested. Which Potency did it give?
A: inconclusive: 4.47 µM [inhibitor, full curve, poor fit]

Q: CCCC[C@@H]1CNCCN1CC1(c2ccccc2)CC1 was tested. Which “activity change, negative = inhibition” value did it give?
A: inactive: 13.1%

Q: Cc1cccc2sc(NC(=O)C3CCCO3)nc12 (stereo not drawn) was tested. Which “activity change, negative = inhibition” value did it give?
A: inactive: 4.32%

Q: For CSC1=C(C#N)C(=O)NC(c2ccccc2O)S1 (stereo not drawn), which “activity change, negative = inhibition” value is on record?
A: inactive: 7.26%

Q: How did the Potency turn out when COC(=O)c1c(SCC(=O)Nc2ccc(C)c(C)c2)nc(=O)[nH]c1C was run?
A: inconclusive: 39.8 µM [inhibitor, single point]

Q: Which Potency does the source give for O=C1c2ccccc2-c2n[nH]c3cccc1c23 here?
A: inconclusive: 31.6 µM [inhibitor, partial curve] [middle of 4 runs]

Q: With Cc1ccc(S(=O)(=O)CCC(=O)OCc2ccc(Cl)cc2)cc1 as the compound, how does the Potency read?
A: inconclusive: 7.94 µM [inhibitor, single point]

Q: COc1ccc(S(=O)(=O)NC(N)=NCCc2ccc(OC)c(OC)c2)cc1 was tested. Which Potency did it give?
A: inconclusive: 0.447 µM [inhibitor, full curve]

Q: Which Potency does the source give for O=C(/C=C/c1ccc(-c2ccccc2[N+](=O)[O-])o1)c1ccco1 here?
A: inconclusive: 35.5 µM [inhibitor, single point]

Q: For O=C(COc1ccccc1-c1ccccc1)Nc1ccc(S(=O)(=O)NCc2ccco2)cc1, which Potency is on record?
A: inconclusive: 20 µM [inhibitor, single point]

Q: For CCN=C1SC(C(=O)Nc2cccc(C)c2)CC(=O)N1CC (stereo not drawn), which Potency is on record?
A: inconclusive: 25.1 µM [inhibitor, single point]

Q: For O=C1OCCN1C(=O)[C@H]1[C@H](c2ccccc2)C(c2ccccc2)=NN1c1ccccc1, which Potency is on record?
A: inactive

Q: COc1ccccc1-c1ccc(/C=C2\C=CC(=O)O2)o1 was tested. Which Potency did it give?
A: inconclusive: 39.8 µM [inhibitor, single point]

Q: Which Potency does the source give for Cc1cc(O)c(C=Nc2ccc(Cl)cn2)c(=O)o1 here?
A: inconclusive: 15.8 µM [inhibitor, partial curve]

Q: Cc1cc(OC(C)C(=O)NCCCN2CCOCC2)c2c(C)c(C)c(=O)oc2c1 (stereo not drawn) was tested. Which activity change, negative = inhibition did it give?
A: inconclusive: -10.1% [inhibitor]

Q: For NS(=O)(=O)c1cccc(NC(=O)CCSc2ccccc2Cl)c1, which Potency is on record?
A: inconclusive: 0.199 µM [inhibitor, full curve, poor fit]

Q: For S=c1[nH]cnc2scc(-c3ccc(Br)cc3)c12, which Potency is on record?
A: inconclusive: 39.8 µM [inhibitor, single point]

Q: For Cc1cc2c(=O)oc(-c3ccc(F)cc3)nc2s1, which Potency is on record?
A: inconclusive: 0.708 µM [inhibitor, full curve, poor fit]

Q: How did the Potency turn out when Cc1ccc(NC(=O)C(OC(=O)c2ccccc2Cl)c2ccccc2)cc1Cl (stereo not drawn) was run?
A: inconclusive: 8.91 µM [inhibitor, full curve, poor fit]

Q: How did the Potency turn out when O=C(CC1C(=O)N(c2ccccc2)C(=S)N1c1ccccc1)c1ccc(Br)cc1 (stereo not drawn) was run?
A: inconclusive: 31.6 µM [inhibitor, single point]

Q: For O=C(Nc1ccc2c(c1)OCCO2)C1CCN(C(=O)c2ccc(Br)cc2)CC1, which Potency is on record?
A: inconclusive: 44.7 µM [inhibitor, single point]

Q: For CCC(C)[C@H]1CNC(=S)N1CCC12CC3CC(CC(C3)C1)C2 (stereo partly drawn), which Potency is on record?
A: inconclusive: 20 µM [inhibitor, partial curve]

Q: How did the Potency turn out when C=CCN1C2=NCCCN2c2ccccc21 was run?
A: inconclusive: 39.8 µM [inhibitor, single point]

Q: How did the Potency turn out when Cn1cnc([N+](=O)[O-])c1C(=O)Nc1cccc([N+](=O)[O-])c1 was run?
A: inconclusive: 25.1 µM [inhibitor, partial curve]

Q: O=C(COC(=O)c1ncc(Cl)c(Cl)c1Cl)Nc1ccccc1OC(F)F was tested. Which Potency did it give?
A: inconclusive: 11.2 µM [inhibitor, partial curve]

Q: With c1ccc(-c2nc3cc4ccccc4cc3[nH]2)nc1 as the compound, how does the Potency read?
A: inconclusive: 28.2 µM [inhibitor, single point]

Q: O=C(Nc1ccc(-c2nnc3n2CCCCC3)cc1)c1cc2ccccc2o1 was tested. Which Potency did it give?
A: inconclusive: 22.4 µM [inhibitor, single point]

Q: How did the Potency turn out when COc1ccccc1/C=N/NC(=O)CC(=O)NCc1ccccc1 was run?
A: inconclusive: 22.4 µM [inhibitor, single point]

Q: Which Potency does the source give for Cc1nn(-c2ccccc2)c(C)c1-c1nnc(-c2c(C)nn(-c3ccccc3)c2C)o1 here?
A: inconclusive: 39.8 µM [inhibitor, single point]

Q: For Cc1cc2oc(=O)cc(-c3cc4ccccc4o3)c2cc1O, which “activity change, negative = inhibition” value is on record?
A: inactive: -12.1%

Q: Which Potency does the source give for COc1cc(/C=C2\SC(=O)NC2=O)ccc1OCc1ccc(Cl)nc1 here?
A: inconclusive: 29.9 µM [inhibitor, partial curve]

Q: CC1CCCC(C)N1/N=C/c1ccc(C#N)cc1 (stereo not drawn) was tested. Which Potency did it give?
A: inconclusive: 31.6 µM [inhibitor, partial curve, poor fit]
